Each structure is given as a SMILES string. The match of structure and compound is tentative.

The chains behind the UniProt entries cited, without tags or fusion partners.
UniProt Q06187, whole entry: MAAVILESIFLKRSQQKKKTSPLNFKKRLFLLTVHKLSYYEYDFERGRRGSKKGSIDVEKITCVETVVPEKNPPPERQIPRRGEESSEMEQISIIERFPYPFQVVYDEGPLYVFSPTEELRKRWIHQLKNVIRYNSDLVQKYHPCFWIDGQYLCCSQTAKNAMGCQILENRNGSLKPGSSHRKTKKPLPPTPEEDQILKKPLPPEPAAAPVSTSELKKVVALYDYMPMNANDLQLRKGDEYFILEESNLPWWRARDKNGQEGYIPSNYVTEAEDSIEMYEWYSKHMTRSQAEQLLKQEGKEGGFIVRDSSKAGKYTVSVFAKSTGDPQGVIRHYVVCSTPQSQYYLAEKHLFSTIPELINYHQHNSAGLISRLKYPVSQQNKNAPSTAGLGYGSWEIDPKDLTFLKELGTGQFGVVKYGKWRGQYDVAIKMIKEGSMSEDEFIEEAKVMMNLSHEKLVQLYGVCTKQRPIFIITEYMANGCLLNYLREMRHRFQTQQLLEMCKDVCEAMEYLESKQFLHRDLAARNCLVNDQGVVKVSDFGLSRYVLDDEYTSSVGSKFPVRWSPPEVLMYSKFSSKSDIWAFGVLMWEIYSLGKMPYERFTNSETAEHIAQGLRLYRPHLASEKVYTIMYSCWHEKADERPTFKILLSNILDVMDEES

For one experiment, the target named is BTK (Homo sapiens, UniProt Q06187). The experiment is described as follows: Cell Degradation: BTK degradation in TMD-8 cells, HTRF assay. Particulars: 6 h treatment, IC50 (DC50) of BTK degradation. On the technique in general: In TR-FRET formats the signal depends on donor and acceptor labels being close together.
The next experiment relates to HEK-293 cells. Kind of experiment: HEK-293 Cytotoxicity Assay (CellTiter-Glo). Particulars: 72 h incubation, CellTiter-Glo luminescence. The protocol: HEK-293 Cytotoxicity Assay
HEK-293 cells are treated with compounds diluted in 0.2% DMSO, dilution is done according to the following protocol: (1) make 500× stock solution in DMSO from 5 mM by 4-fold dilution, total 8 doses were included; (2) make 2× solution in cell culture medium by transferring 0.5 ul 500× stock solution into 125 ul medium; (3) 50 ul of 2× solution is added to cells and incubate for 72 h.
Add 25 μl of the CellTiter-Glo®Reagent [I (Promega)—Cat No. G7572] to each well in the 96-well plate. Mix contents for 2 minutes on an orbital shaker to induce cell lysis. Allow the plate to incubate at room temperature for 10 minutes to stabilize luminescent signal. Record luminescence on BMG PheraStar with luminescence protocol.
The IC50 value of a compound can be obtained by fitting the following equation. Y=Bottom+(TOP−Bottom)/(1+((IC50/X)^hillslope)) Wherein, X and Y are known values, and IC50, Hillslope, Top and Bottom are the parameters obtained by fitting with software. Y is the inhibition percentage (calculated from the equation), X is the concentration of the compound; IC50 is the concentration of the compound when the 50% inhibition is reached. The smaller the IC50 value is, the stronger the inhibitory ability of the compound is. […]
For orientation: ATP-based viability assays read luminescence as a measure of living cells.

In the case of `Cc1cc(-c2ncnc3[nH]c(-c4ccc(N5CCN(CC6CCN(c7ccc(N8CCC(=O)NC8=O)c(C)c7)CC6)CC5)cn4)cc23)ccc1[C@@H](C)NC(=O)c1nc(C(C)(C)C)no1`, at BTK, the DC50 came out at 0.36 nM. This compound also yielded an IC50 with HEK-293 cells greater than 10 µM.

A word on the DC50: it is the concentration giving 50% degradation. Read a low DC50 as degradation at low concentration. For orientation: IC50 means the concentration at which inhibition is half-maximal. High values mean lower potency, low ones higher potency.

Source of the values: patent US20230167118A1, “DEGRADATION OF BRUTON'S TYROSINE KINASE (BTK) BY CONJUGATION OF BTK INIDBITORS WITH E3 LIGASE LIGAND AND METHODS OF USE” (BEIGENE, LTD., priority 2020, published 2023).
